Results on four substances are retold here after publication PMC10150200.

Amino acid sequences for entries named in this document (tags omitted).
UniProt O15205: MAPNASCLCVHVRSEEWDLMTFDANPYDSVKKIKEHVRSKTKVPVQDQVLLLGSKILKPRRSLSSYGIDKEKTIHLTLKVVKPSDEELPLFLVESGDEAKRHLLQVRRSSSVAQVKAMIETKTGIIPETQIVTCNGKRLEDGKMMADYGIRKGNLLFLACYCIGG
UniProt Q9Z0N7: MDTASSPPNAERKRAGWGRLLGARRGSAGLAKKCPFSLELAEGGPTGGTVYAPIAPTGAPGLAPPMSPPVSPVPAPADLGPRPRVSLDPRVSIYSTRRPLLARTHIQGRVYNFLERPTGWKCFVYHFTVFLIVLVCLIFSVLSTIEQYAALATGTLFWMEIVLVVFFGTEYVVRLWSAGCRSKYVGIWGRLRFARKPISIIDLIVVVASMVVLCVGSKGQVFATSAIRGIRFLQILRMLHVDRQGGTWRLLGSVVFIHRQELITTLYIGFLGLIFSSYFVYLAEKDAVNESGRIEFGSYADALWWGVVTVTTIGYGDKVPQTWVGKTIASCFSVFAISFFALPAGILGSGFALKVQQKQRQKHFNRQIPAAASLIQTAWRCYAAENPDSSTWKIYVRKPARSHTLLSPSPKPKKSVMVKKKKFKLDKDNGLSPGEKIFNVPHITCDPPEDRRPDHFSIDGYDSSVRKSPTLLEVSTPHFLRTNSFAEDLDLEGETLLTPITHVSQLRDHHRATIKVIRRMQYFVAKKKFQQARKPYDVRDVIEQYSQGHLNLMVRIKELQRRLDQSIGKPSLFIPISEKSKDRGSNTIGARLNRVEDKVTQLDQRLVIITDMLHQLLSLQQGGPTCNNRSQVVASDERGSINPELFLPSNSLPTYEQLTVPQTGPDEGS

Assay [1] deals with Flag-FAT10 expressed in HEK293 cells (UniProt O15205). Kind of assay: co-IP; HEK293 cells expressing Flag-FAT10 or Flag-ΔFAT10 and His-KCNQ1; RIPA lysate, Protein A/G magnetic beads, western blot.
Assay [2] shares this target. Description: co-IP; Fat10-/- HEK293 cells, with Flag-Fat10 plasmid, Si-Ub or Si-con, or IFN-γ/TNF-α; Ub-Kv7.1 and FAT10-Kv7.1 complexes detected.
The target of assay [3] is FAT10, endogenous in Fat10+/+ HEK293 cells, induced by IFN-γ/TNF-α (human (endogenous in HEK293)) (UniProt O15205). Description: co-IP; Fat10+/+ HEK293 cells, with or without IFN-γ/TNF-α for the indicated times, Si-Ub or Si-scramble; Ub-Kv7.1 and FAT10-Kv7.1 complexes detected.
Assay [4] addresses Flag-FAT10 expressed in H9C2 cells (UniProt O15205). Description: co-IP; H9C2 cells transfected with increasing amounts of Flag-Fat10 plasmid; immunoprecipitation with anti-Ub and anti-FAT10 beads, Kv7.1 detected by western blot. (In general: Immunoblotting shows a protein as a band on a membrane.)
In assay [5] the target is T1, Human leukocyte antigen F-associated transcript 10 (FAT10), endogenous in neonatal rat cardiomyocytes (rat (endogenous in NRCMs)) (UniProt Q921A3).
T1 sequence: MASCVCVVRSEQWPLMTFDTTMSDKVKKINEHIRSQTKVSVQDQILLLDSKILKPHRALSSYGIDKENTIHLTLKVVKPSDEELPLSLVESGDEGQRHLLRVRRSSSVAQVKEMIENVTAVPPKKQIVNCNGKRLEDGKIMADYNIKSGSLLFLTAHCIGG
Description: co-IP; endogenous proteins; total proteins extracted with RIPA buffer, 500 ug lysate with antibody 1-2 h at room temperature, Protein A/G magnetic beads at 4°C overnight, western blot.

No constants are given. Whether binding was seen depends on the method and setting. In cells and extracts the contact can be indirect. Some binding calls cover weakened binding; strength is not graded here.

“His-KCNQ1 (Kv7.1) expressed in HEK293 cells (from UniProt P51787 1-676)”: the binding entry in assay [1] is listed as “binds”. As to “Kv7.1 in Fat10+/+ and Fat10-/- HEK293 cells (from UniProt P51787 1-676)”, the binding result in assay [2] and in assay [3] was “binds” in each case. As for “Kv7.1 in H9C2 cells (from UniProt Q9Z0N7 1-669)”, the binding result in assay [4] is listed as “binds”.

With “Kv7.1, the alpha-subunit of IKs, endogenous in neonatal rat cardiomyocytes (from UniProt Q9Z0N7 1-669)”, in assay [5], the binding entry is on record as “binds”.
